# Experimental data from doi:10.1101/2023.08.03.551696.
# Amino acid sequences for entries named in this document (tags omitted). A change or cut given only in a name is not applied to a line headed by its entry.
# UniProt P01584: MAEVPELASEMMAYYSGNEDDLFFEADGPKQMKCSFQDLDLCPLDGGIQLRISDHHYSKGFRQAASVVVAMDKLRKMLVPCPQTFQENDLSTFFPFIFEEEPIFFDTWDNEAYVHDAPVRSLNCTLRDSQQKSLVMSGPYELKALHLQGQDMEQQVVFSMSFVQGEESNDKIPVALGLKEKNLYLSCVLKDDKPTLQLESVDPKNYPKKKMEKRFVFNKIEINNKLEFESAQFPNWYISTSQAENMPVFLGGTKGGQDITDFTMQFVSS
# Molecular target: T1, MxA-V5 (myxovirus resistant protein 1, V5-tagged) (human) (UniProt P20591)
# T1 sequence: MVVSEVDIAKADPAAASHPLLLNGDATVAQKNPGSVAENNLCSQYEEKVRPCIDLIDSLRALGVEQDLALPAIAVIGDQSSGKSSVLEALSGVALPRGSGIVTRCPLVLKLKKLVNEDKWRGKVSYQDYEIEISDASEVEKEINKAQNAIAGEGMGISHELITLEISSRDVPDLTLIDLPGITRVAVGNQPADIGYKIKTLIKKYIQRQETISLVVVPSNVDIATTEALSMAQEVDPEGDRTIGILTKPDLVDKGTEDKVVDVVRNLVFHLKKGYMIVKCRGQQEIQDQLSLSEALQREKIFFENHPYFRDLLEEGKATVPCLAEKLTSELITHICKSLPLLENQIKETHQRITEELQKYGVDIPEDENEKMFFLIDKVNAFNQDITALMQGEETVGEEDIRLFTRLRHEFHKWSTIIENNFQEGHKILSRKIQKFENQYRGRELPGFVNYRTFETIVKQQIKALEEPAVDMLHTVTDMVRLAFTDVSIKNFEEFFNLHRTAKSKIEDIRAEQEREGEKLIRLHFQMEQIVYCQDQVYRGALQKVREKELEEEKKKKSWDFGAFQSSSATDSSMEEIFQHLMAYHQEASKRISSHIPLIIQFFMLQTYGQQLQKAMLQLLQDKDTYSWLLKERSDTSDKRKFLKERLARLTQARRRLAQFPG
# Test: co-IP
substance,measurement,value
pro-IL-1β (endogenous) (from UniProt P01584),binding,no binding

# No constants are given. Whether binding was seen depends on the method and setting. In cells and extracts the contact can be indirect. Sequences can lack the tags named with a protein.
